Tested on: E. coli MG1655 + pBGS18 + CTX-M-14
Experiment: MIC broth microdilution, ampicillin with or without inhibitor
Format: cell-based
Settings: Escherichia coli, MG1655, read-out: MIC of ampicillin without an inhibitor

Structure (SMILES): CC1(C)S[C@@H]2[C@H](NC(=O)[C@H](N)c3ccccc3)C(=O)N2[C@H]1C(=O)O [AMP, ampicillin, reference compound]
- MIC: 1020 µg/mL
